Measurements: PubChem BioAssay AID651640 (Broad Institute, 2012)
Several values for one entry are separate records, joined by “and”; a condition that tells them apart may be missing. Identical values can stand only once. Hit rate of the full screen: of about 350,000 compounds, about 6,000 (1.7%) were called active. Inconclusive results, whose numbers are uncertain, are shown with a selection of clear calls. No stated cut-off is given here; in the data, active means CPE inhibition above about 20% (passing the limit was not always enough); inconclusive means no clear call, values can overlap the other calls; tested in BHK-21 cells.

Experiment: protection of cells from dengue 2 killing – plate reader, single concentration, primary screen (AID 651640);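 further: 0% = median of neutral control wells and 100% = median of positive control wells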
Conditions: DENV2-infected cells, cytopathic effect rescue, at 9.99 µM, stronger effect = higher value

Q: With `COc1ccc(S(=O)(=O)N(C)C[C@@H]2Oc3ccc(NC(=O)Nc4cccc5ccccc45)cc3CC(=O)N([C@H](C)CO)C[C@@H]2C)cc1` as the compound, how does the CPE inhibition read?
A: inactive: -5.11%

Q: For `Cc1cccc(Oc2cc(N)cc([N+](=O)[O-])c2)c1`, which CPE inhibition is on record?
A: inconclusive: 70.8%

Q: For `O=C(Nc1ccccc1Cl)c1cc(C2CCCCN2C(=O)C2CCCCC2)on1` (configuration not stated), which CPE inhibition is on record?
A: inactive: 8.78%

Q: Which CPE inhibition does the source give for `CN(C)CC(=O)N1CC[C@H]2[C@@H]1c1cc(-c3ccccc3F)ccc1N(C)[C@H]2CO` here?
A: active: 21.5%

Q: For `CN1CCN(C(=O)c2cc3sc4ccccc4c3s2)CC1`, which CPE inhibition is on record?
A: active: 43.4%

Q: With `OCC1OC(n2cnc3c(/C=C(\O)c4ccccc4)ncnc32)C(O)C1O` (configuration not stated) as the compound, how does the CPE inhibition read?
A: inconclusive: 21.7%

Q: With `Cc1ccc(O)c(CNc2cccc(C)n2)c1` as the compound, how does the CPE inhibition read?
A: inactive: 6.13%

Q: With `CN(Cc1ccccc1F)C[C@H]1[C@@H](c2ccccc2)[C@@H](CO)N1S(C)(=O)=O` as the compound, how does the CPE inhibition read?
A: inactive: -1.35%

Q: Which CPE inhibition does the source give for `CCCCNC(=O)C1CC(c2c(Cl)cccc2Cl)=NO1` (configuration not stated) here?
A: inconclusive: 53.6%

Q: With `CC1CCC(C(C)C)C(OC(=O)Cn2c(-c3ccc(Br)cc3)[n+](C)c3ccccc32)C1` (configuration not stated) as the compound, how does the CPE inhibition read?
A: inactive: -8.92% and inactive: -0.0995%

Q: Which CPE inhibition does the source give for `CNS(=O)(=O)c1cccc(C(=O)OCC(=O)N2CC(C)OC(C)C2)c1` (configuration not stated) here?
A: inconclusive: 43.4%

Q: With `CCC(=O)N1CCN(c2ccc(Cl)cc2NC(=O)c2ccc([N+](=O)[O-])o2)CC1` as the compound, how does the CPE inhibition read?
A: inactive: 7.28%

Q: With `CC(C)C#Cc1ccc([C@@H]2[C@H](CO)N3CCCCN(C(=O)c4ccc5c(c4)OCO5)C[C@@H]23)cc1` as the compound, how does the CPE inhibition read?
A: inactive: -3.67%

Q: For `CCCN(CC(=O)Nc1ccccc1C)C(=O)c1cccc(S(=O)(=O)N2CCc3ccccc3C2)c1`, which CPE inhibition is on record?
A: inconclusive: 23.8%

Q: For `O=C(C[C@@H]1CC[C@H]2[C@@H](COC[C@@H](O)CN2CC2CCCC2)O1)NCC1CC1`, which CPE inhibition is on record?
A: inconclusive: 62.9%

Q: Which CPE inhibition does the source give for `Cc1nnc(SCC(=O)N2CCCC(C(=O)c3ccc(Cl)cc3)C2)o1` (configuration not stated) here?
A: inactive: -2.94%

Q: Which CPE inhibition does the source give for `Cc1ccccc1-c1ccc(C2[C@H]3CNC[C@@H]2N3Cc2ccccn2)cc1` (some centres not stated) here?
A: inconclusive: 50.1%

Q: With `COc1ccc(Cl)cc1-c1cc(C(=O)NCc2ccc(F)cc2)[nH]n1` as the compound, how does the CPE inhibition read?
A: inconclusive: 28.5%

Q: Which CPE inhibition does the source give for `Cc1nc(N)nc(N(C)c2ccccc2)c1Br` here?
A: inconclusive: 50.4%

Q: Which CPE inhibition does the source give for `C[C@H](CO)N1C[C@H](C)[C@H](CN(C)Cc2cccc(F)c2)Oc2ncc(C3=CCCCC3)cc2C1=O` here?
A: active: 23.3%

Q: For `COc1ccc(OC)c(NC(=O)c2ccc(OCC(=O)N3CCOCC3)c(OC)c2)c1`, which CPE inhibition is on record?
A: inconclusive: 22.3%

Q: For `Cc1ccc(S(=O)(=O)N(C)c2c(C)ccc(S(=O)(=O)N3CCN(C)CC3)c2C)cc1`, which CPE inhibition is on record?
A: inconclusive: 20.1%

Q: Which CPE inhibition does the source give for `COc1cccc(-c2ccc3c(c2)[C@@H]2[C@@H](CCN2C(=O)C2CC2)[C@@H](CO)N3)c1` here?
A: inactive: -4.29%

Q: Which CPE inhibition does the source give for `CCOC(=O)N1CCN(C(=O)c2c(-c3ccccc3)noc2C)CC1` here?
A: inactive: 8.07%

Q: For `O=C(c1cccs1)c1ccccc1Cc1cccs1`, which CPE inhibition is on record?
A: inconclusive: 57.4%

Q: For `C[C@H]1CN([C@@H](C)CO)C(=O)CCCn2cc(nn2)CO[C@H]1CN(C)Cc1ccc(-c2ccccc2)cc1`, which CPE inhibition is on record?
A: inactive: 0.708%

Q: Which CPE inhibition does the source give for `O=C(C[C@@H]1CC[C@H](NC(=O)c2ccncc2)[C@@H](CO)O1)NCC1CCCCC1` here?
A: inactive: 3.71%

Q: For `COC(=O)C1=C(C)N(Cc2ccccc2C(F)(F)F)C(=NCc2ccc(OC)cc2)NC1c1ccccc1` (configuration not stated), which CPE inhibition is on record?
A: active: 41.8%

Q: For `Cc1ccc(S(=O)(=O)Nc2ccc3c(c2)CC(=O)N([C@H](C)CO)C[C@H](C)[C@@H](CN(C)Cc2ccccc2)O3)cc1`, which CPE inhibition is on record?
A: inconclusive: 24.3%

Q: With `O=C(c1ccccc1F)N1CC[C@@H]2[C@@H](CO)Nc3ccc(Br)cc3[C@@H]21` as the compound, how does the CPE inhibition read?
A: inconclusive: 72.1%

Q: With `C[C@@H]1CN([C@H](C)CO)C(=O)Cc2cc(NC(=O)CCC(F)(F)F)ccc2O[C@@H]1CN(C)C(=O)Nc1ccc(F)cc1` as the compound, how does the CPE inhibition read?
A: inconclusive: 39.6%

Q: For `CCOC(=O)N1CCC(NC(=O)c2cc(COc3c(C)cccc3C)on2)CC1`, which CPE inhibition is on record?
A: inconclusive: 52.8%

Q: With `C[C@H]1CN([C@@H](C)CO)C(=O)c2cc(/C=C/c3ccccc3)cnc2O[C@@H]1CN(C)S(=O)(=O)c1cccs1` as the compound, how does the CPE inhibition read?
A: inactive: 6.56%

Q: With `Cc1onc(-c2ccccc2)c1C(=O)c1ccccc1` as the compound, how does the CPE inhibition read?
A: inconclusive: 44.6%

Q: For `C[C@@H]1CN([C@H](C)CO)C(=O)c2cc(/C=C/c3ccccc3)cnc2O[C@@H]1CN(C)Cc1ccc2c(c1)OCO2`, which CPE inhibition is on record?
A: inconclusive: 45%

Q: Which CPE inhibition does the source give for `COc1cc(S(=O)(=O)N2CCCCC2)ccc1NC(=O)c1ccccc1Cl` here?
A: inconclusive: 21.7%

Q: With `COc1ccc(S(=O)(=O)N2CCOCC2)cc1C(=O)NCc1ccccc1CN1CCCC1` as the compound, how does the CPE inhibition read?
A: inconclusive: 38.3%

Q: For `COc1ccccc1CNC(=O)C[C@@H]1C[C@H]2c3cc(N(C)C)ccc3O[C@H]2[C@@H](CO)O1`, which CPE inhibition is on record?
A: active: 47.1%

Q: Which CPE inhibition does the source give for `COCC(C)n1c(SCC(=O)Nc2cc(C)on2)nc2ccccc2c1=O` (configuration not stated) here?
A: inactive: 8.17%

Q: For `Cc1[nH]c2ccccc2c1CC(=O)Nc1ccc(N(C)c2cccnc2)c(-c2cccc(Cl)c2)c1`, which CPE inhibition is on record?
A: active: 42.5%

Q: With `COc1ccc(/C=C/C(=O)NC(=S)NN2CCCCC2c2cccnc2)cc1OC` (configuration not stated) as the compound, how does the CPE inhibition read?
A: inactive: 6.93%

Q: For `O=C1CCC(C(=O)OCC(=O)Nc2ccc(SC(F)F)cc2)=NN1`, which CPE inhibition is on record?
A: active: 29.1%

Q: Which CPE inhibition does the source give for `Cc1cc(C)nc(NC(N)=NCCc2ccccc2)n1` here?
A: inactive: -3.94%

Q: Which CPE inhibition does the source give for `Cc1ccc(S(=O)(=O)N(C)C[C@H]2Oc3ncc(C#CC4(O)CCCC4)cc3C(=O)N([C@H](C)CO)C[C@H]2C)cc1` here?
A: active: 20.8%

Q: With `CCCN(C)C[C@H]1Oc2ncc(C#Cc3ccc(OC)cc3)cc2C(=O)N([C@H](C)CO)C[C@H]1C` as the compound, how does the CPE inhibition read?
A: inconclusive: 32%

Q: Which CPE inhibition does the source give for `C[C@@H]1CCCCO[C@@H](CN(C)C(=O)CCCN(C)C)[C@@H](C)CN([C@@H](C)CO)C(=O)c2cc(N(C)C)ccc2O1` here?
A: inconclusive: 68.5%

Q: With `C[C@]12CC[C@@H]3c4ccc(O[C@@H]5O[C@H](C(=O)O)[C@@H](O)[C@H](O)[C@H]5O)cc4CC[C@H]3[C@@H]1C[C@@H](O)[C@@H]2O` as the compound, how does the CPE inhibition read?
A: inactive: 0.534%
